# Measurements from PubChem BioAssay (NCATS).
# By UniProt entry, the sequences of proteins in these tests, tags left out. Where a name states a change or a piece, a line headed by the entry shows the natural chain unless it says otherwise.
# UniProt Q07869: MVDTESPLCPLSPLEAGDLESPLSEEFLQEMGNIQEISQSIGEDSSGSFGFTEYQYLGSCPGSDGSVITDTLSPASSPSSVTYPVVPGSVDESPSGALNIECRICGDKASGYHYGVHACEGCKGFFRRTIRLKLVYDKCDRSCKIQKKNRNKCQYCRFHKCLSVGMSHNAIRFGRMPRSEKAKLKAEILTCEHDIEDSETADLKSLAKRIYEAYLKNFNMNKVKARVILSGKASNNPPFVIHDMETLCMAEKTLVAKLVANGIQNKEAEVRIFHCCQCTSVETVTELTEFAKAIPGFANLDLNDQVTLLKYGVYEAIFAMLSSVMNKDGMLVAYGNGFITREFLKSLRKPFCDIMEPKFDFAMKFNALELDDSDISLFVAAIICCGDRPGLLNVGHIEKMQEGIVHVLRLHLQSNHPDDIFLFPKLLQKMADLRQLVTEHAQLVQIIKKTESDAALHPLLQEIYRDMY
# UniProt P51449: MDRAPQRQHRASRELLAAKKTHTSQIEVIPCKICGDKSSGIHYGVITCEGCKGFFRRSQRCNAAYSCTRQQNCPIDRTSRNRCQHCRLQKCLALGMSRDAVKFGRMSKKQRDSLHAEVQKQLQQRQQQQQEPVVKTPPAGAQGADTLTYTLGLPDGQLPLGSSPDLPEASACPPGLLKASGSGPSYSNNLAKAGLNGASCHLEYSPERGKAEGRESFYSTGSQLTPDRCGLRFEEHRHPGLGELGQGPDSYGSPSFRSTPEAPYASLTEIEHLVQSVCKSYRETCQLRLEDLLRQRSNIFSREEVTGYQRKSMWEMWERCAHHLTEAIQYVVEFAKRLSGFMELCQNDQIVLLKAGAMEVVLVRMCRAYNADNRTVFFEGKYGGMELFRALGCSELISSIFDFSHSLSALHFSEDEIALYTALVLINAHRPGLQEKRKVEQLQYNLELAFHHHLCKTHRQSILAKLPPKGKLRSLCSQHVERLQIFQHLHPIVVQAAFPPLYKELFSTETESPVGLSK
# UniProt P01375, whole entry, looked up: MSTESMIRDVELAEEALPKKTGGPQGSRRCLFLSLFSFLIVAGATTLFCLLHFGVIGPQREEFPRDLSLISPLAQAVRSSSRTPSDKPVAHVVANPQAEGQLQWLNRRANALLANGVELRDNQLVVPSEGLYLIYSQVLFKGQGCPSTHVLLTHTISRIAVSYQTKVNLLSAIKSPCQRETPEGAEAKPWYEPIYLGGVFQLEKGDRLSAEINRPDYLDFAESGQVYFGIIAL
# UniProt P15289: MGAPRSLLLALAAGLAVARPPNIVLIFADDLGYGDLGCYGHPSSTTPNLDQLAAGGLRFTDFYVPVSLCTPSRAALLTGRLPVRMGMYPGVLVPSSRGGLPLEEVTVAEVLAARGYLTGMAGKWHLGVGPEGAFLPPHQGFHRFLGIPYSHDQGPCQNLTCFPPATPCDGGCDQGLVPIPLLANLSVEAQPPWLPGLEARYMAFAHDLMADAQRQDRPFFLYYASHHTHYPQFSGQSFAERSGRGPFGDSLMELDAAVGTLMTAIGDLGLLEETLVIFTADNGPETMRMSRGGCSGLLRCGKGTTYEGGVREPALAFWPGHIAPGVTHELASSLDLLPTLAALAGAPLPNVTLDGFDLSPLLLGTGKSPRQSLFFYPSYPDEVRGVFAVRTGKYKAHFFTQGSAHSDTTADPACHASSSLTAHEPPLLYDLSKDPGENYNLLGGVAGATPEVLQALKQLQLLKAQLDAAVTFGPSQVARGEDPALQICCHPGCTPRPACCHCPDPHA
# UniProt P39748, whole entry, looked up: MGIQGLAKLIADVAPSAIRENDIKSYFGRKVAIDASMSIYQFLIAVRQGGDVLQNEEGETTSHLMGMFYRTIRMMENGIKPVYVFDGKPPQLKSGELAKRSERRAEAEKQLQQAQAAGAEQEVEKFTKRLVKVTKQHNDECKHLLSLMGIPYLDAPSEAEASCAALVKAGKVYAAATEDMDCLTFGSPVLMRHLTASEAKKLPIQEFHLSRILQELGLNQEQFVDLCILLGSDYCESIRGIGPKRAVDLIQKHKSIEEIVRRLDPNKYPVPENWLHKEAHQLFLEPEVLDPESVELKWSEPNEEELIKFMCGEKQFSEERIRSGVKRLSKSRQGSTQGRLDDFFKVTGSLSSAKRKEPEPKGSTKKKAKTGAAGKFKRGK
# Values joined by “and” are separate entries in the source; they are usually repeats but may differ in a detail not shown here. Equal entries are not always repeated. Inconclusive results, whose numbers are uncertain, are shown with a selection of clear calls. For part of these data: Potencies of inconclusive entries are doubtful fits and often do not repeat. More than one record can exist for a structure, and the calls need not agree. Active and inactive are the calls of the source. Unless noted, calls come from the whole dose curve; as a rule, active = well fitted curve in the direction sought with a large enough effect; inconclusive = small, poorly fitted or top-dose-only effect, or another doubt; inactive = no such curve, though single readings can be large; an effect the other way counts as inactive or inconclusive.
# Key:
# [1] = qHTS assay for small molecule agonists of the antioxidant response element (ARE) signaling pathway (AID 651741; active = well fitted activation curve with a large enough effect in the signal ratio; inconclusive = small, poorly fitted or top-dose-only effect, or effect the other way, or a change in a side signal; the % refers to the signal ratio; note: potency is the fitted concentration of half-maximal effect; for activation: % of control where 0% means no effect); conditions: HepG2 ARE-bla reporter, beta-lactamase FRET ratio, 16 h; activation: at 96 µM (top of the series)
# Procedure, shortened: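 Reporter: beta-lactamase under ARE, stably in HepG2. Exposure: 16 h, 37 C, compounds delivered in DMSO by pin tool after 5 h cell preincubation. Readout: FRET substrate fluorescence after 2 h at RT.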
# [2] = qHTS assay to identify small molecules that stimulate interleukin-8 (IL-8) secretion (AID 651758; active = well fitted activation curve with a large enough effect in the signal ratio; inconclusive = small, poorly fitted or top-dose-only effect, or effect the other way, or a change in a side signal; the % refers to the signal ratio; note: potency is the fitted concentration of half-maximal effect; for activation: 0% is about no effect); conditions: HTRF ratio (665/615); activation: at 92.2 µM (top of the series)
# Procedure, shortened: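 Quantitative HTS in THP-1 monocytic cells at 2000 cells per well, with 16 hrs compound incubation at 37 C. IL-8 in the medium was then quantified by HTRF immunoassay, read after 1-3 hrs at room temperature.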
# [3] = biological target: Peroxisome proliferator-activated receptor alpha (Homo sapiens) (UniProt Q07869); test: qHTS assay for small molecule agonists of the peroxisome proliferator-activated receptor alpha (PPARalpha) signaling pathway (AID 651778); conditions: PathHunter PPARalpha complementation, chemiluminescence, 6 h; max response: hits give high values; note: potency is the fitted concentration of half-maximal effect; for max response: % of control where 0% means no effect
# Procedure, shortened: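 Cells plated at 2,000/well and held overnight at 37 C, 5% CO2, then compound added by pin tool for 6 hr; after PathHunter detection reagent and 60 min at room temperature, chemiluminescence from enzyme complementation was read.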
# [4] = biological target: Nuclear receptor ROR-gamma (Homo sapiens) (UniProt P51449); test: qHTS assay for small molecule antagonists of the retinoid-related orphan receptor gamma (ROR-gamma) signaling pathway (AID 651802); note: nearly all actives have a fitted effect of over 60% in size; note: potency is the fitted concentration of half-maximal effect;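 for activity change, negative = inhibition: CHO cells with doxycycline-induced ROR-gamma expression; luciferase reporter luminescence driven by ROR response element; % is set by controls: 0 for no effect and ±100 for the full control effect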
# Procedure, shortened: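 Luminescence (One-Glo, 30 min RT) measured 16 h after compound addition and doxycycline induction at 37C. Reporter: RORE-luciferase under TET-inducible ROR-gamma in CHO cells.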
# [5] = biological target: Tumor necrosis factor (Homo sapiens) (UniProt P01375); test: qHTS assay to identify small molecules that stimulate Tumor Necrosis Factor-alpha (TNF-alpha) secretion (AID 651757; active = well fitted curve in the direction sought with a large enough effect in the signal ratio; inconclusive = small, poorly fitted or top-dose-only effect, or a change in a side signal; inactive = no such curve, though single readings can be large or run the other way; the % refers to the signal ratio; note: potency is the fitted concentration of half-maximal effect; for activation (TNF-alpha secretion): 0% is about no effect); conditions: Human cells, HTRF 665/615 ratio; activation (TNF-alpha secretion): at 92.2 µM (top of the series)
# Procedure, shortened: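 Secreted TNF-alpha quantified by TR-FRET sandwich of two labeled anti-TNF-alpha antibodies, incubated 3 hr at room temperature. Preceded by 17 hr, 37 C compound treatment of THP-1 cells at 3000 cells/well.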
# [6] = qHTS assay for small molecule activators of the p53 signaling pathway (AID 651743; active = well fitted activation curve with a large enough effect in the signal ratio, not every such curve was filed as active; inconclusive = small, poorly fitted or top-dose-only effect, or a change in a side signal; the % refers to the signal ratio; note: potency is the fitted concentration of half-maximal effect; for activation: % of control where 0% means no effect); conditions: HCT-116 p53RE-bla, beta-lactamase FRET ratio, 16 h; activation: hits give high values
# Procedure, shortened: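 Agonist-mode quantitative HTS in HCT-116 cells carrying a p53-response-element beta-lactamase reporter; 16 h compound treatment at 37 C, then FRET substrate loading for 2 h at room temperature and fluorescence read.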
# [7] = qHTS assay for small molecule disruptors of the mitochondrial membrane potential - 1 hr assay (AID 651754; calls by dose curve; note: potency is the fitted concentration of half-maximal effect; nearly all actives have a fitted effect of over 35% in size); conditions: ratio change, negative = depolarisation: at 92.2 µM (top of the series)
# Procedure, shortened: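 Mitochondrial potential in living HepG2 cells after 1 hr compound treatment at 37C was read with Mito-MPS dye added for a further 30 min. Red aggregate and green monomer fluorescence were measured; loss of potential leaves dye as cytoplasmic monomers.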
# [8] = biological target: Arylsulfatase A (Homo sapiens) (UniProt P15289); test: qHTS screen for enhancers of Arylsulfatase A (ASA1): LOPAC Validation Assay (AID 720538); conditions: activity change, positive = activation: at 57.5 µM (top of the series); note: potency is the fitted concentration of half-maximal effect
# Procedure, shortened: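 Read-out: fluorescence at Ex=525/Em=598 nm after 1N NaOH final stop. Patient fibroblasts carrying ASA-I179S had 48h compound exposure, then 14h room-temperature pNCS hydrolysis (0.5mM final) in lysis buffer. Signal increase = enhanced activity.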
# [9] = qHTS assay for small molecule antagonists of the retinoid-related orphan receptor gamma (ROR-gamma) signaling pathway - cell viability counter screen (AID 720652; active = well fitted curve in the direction sought with a large enough effect in the repeat runs; inconclusive = weak or mixed curves; inactive = no such curve, though single readings can be large; an effect the other way counts as inactive or inconclusive;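 note: compound exposure lasted 16 hr before ATP read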; note: potency is the fitted concentration of half-maximal effect)
# Procedure, shortened: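 Cytotoxicity counter screen: intracellular ATP (CellTiter-Glo luminescence) measured in the doxycycline-induced CHO RORE-luciferase reporter line after 16 hr compound exposure at 37 C, 5% CO2.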
# [10] = qHTS assay for small molecule disruptors of the mitochondrial membrane potential - 5 hr assay (AID 651755; calls by dose curve; note: potency is the fitted concentration of half-maximal effect; nearly all actives have a fitted effect of over 40% in size); conditions: JC-1-type ratio dye; ratio change, negative = disruption: at 92.2 µM (top of the series)
# Procedure, shortened: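 Seed HepG2 overnight, add compound, incubate 5 hr at 37C and 5% CO2, stain 30 min with Mito-MPS, then measure monomer (490/535 nm) and aggregate (540/590 nm) fluorescence.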
# [11] = qHTS assay for small molecule agonists of the antioxidant response element (ARE) signaling pathway measured by Nrf2-dependant transcriptional activity (AID 720636; active = well fitted curve in the direction sought with a large enough effect in the repeat runs; inconclusive = weak or mixed curves; inactive = no such curve, though single readings can be large; an effect the other way counts as inactive or inconclusive; note: potency is the fitted concentration of half-maximal effect)
# Procedure, shortened: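 Nrf2-dependent transcription read as ONE-Glo luciferase signal from ARE-luc HepG2 reporter cells after 16 hr compound treatment at 37 C, 5% CO2, in assay medium with 1% dialyzed FBS.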
# [12] = qHTS for Inhibitors of Ubiquitin-specific Protease USP2a Using CHOP2 as the Reporter: K633 Counterscreen (AID 652168); conditions: No-enzyme DiUb K48 IQF substrate fluorescence interference, kinetic; at 57.5 µM (top of the series); note: % of control where 0% means no effect
# Procedure, shortened: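 Detection-system control: fluorescence of K48-linked DiUb-4IQF substrate (100 nM as added) tracked over time, Ex 525/Em 598, with pinned compounds and no enzyme, in pH 8 Tris buffer containing beta-mercaptoethanol and 0.05% Chaps.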
# [13] = qHTS for Inhibitors of Ubiquitin-specific Protease USP2a Using CHOP2 as the Reporter: Cytotox Assay (AID 652170); conditions: HCT116 viability, CellTiter-Glo luminescence, 72 h; note: potency is the fitted concentration of half-maximal effect; nearly all actives have a fitted effect of over 70% in size
# Procedure, shortened: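 Cytotoxicity read as ATP luminescence (CellTiter-Glo) after 72 hr compound treatment at 37 deg C. Cells: HCT116, 600/well in DMEM plus 10% FBS. Normalization between DMSO-treated cells and cell-free wells.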
# [14] = biological target: Flap endonuclease 1 (Homo sapiens) (UniProt P39748); test: qHTS Assay for the Inhibitors of FEN1: Confirmatory Assay for Cherry-picked Compounds (AID 720498); conditions: FEN1 flap cleavage, TAMRA/BHQ2 fluorogenic DNA substrate; note: potency is the fitted concentration of half-maximal effect; nearly all actives have a fitted effect of over 60% in size
# Procedure, shortened: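 Human FEN1 (10 nM reagent) was preincubated with compounds for 15 min at room temperature, then 50 nM final double-flap DNA substrate (5'-TAMRA flap, BHQ-2 quencher strand) was added. Fluorescence (ex 525/em 598 nm) was read at 0 and 15 min.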
compound,measurement,setting,value
NC(N)=NC(N)=NCCc1ccccc1,Potency,[1],active: 37.6 µM
same,Potency,[2],"inconclusive: 75 µM [activator, single point]"
same,Potency,[3],active: 35.5 µM
same,Potency,[4],active: 16.8 µM
CCCCCCCC/C=C\CCCCCCCC(=O)O,Potency,[1],inactive
same,Potency,[2],inactive
same,Potency,[4],"inconclusive: 37.6 µM [inhibitor, partial curve, poor fit]"
CN(C)/N=N/c1nc[nH]c1C(N)=O,Potency,[1],inactive
same,activation (TNF-alpha secretion),[5],inconclusive: -0.0476%
same,Potency,[2],active: 75 µM
Cn1cnc([N+](=O)[O-])c1Sc1ncnc2nc[nH]c12,Potency,[6],active: 25.1 µM and active: 28.2 µM
same,Potency,[7],"inconclusive: 33.5 µM [inhibitor, partial curve, poor fit]"
same,activation (TNF-alpha secretion),[5],inconclusive: 0.0824%
same,Potency,[2],"inconclusive: 66.8 µM [activator, partial curve, poor fit]"
same,Potency,[4],"inconclusive: 37.6 µM [inhibitor, partial curve, poor fit]"
same,Potency,[8],"inconclusive: 75.7 nM [activator, full curve, poor fit]"
same,Potency,[9],inactive
O=C1O[C@H]([C@@H](O)CO)C(O)=C1O,Potency,[1],active: 61.1 µM
same,activation,[2],inconclusive: -0.446%
Oc1c(I)cc(Cl)c2cccnc12,Potency,[1],active: 26.6 µM
same,Potency,[7],"inconclusive: 84.1 µM [inhibitor, partial curve, poor fit]"
same,Potency,[10],"inconclusive: 21.1 µM [inhibitor, partial curve]"
same,Potency,[2],inactive
same,Potency,[11],active: 5.96 µM
same,Potency,[9],"inconclusive: 37.6 µM [cytotoxic, partial curve]"
C=C(CC)C(=O)c1ccc(OCC(=O)O)c(Cl)c1Cl,activation,[6],inconclusive: -5.96%
same,Potency,[10],"inconclusive: 42.2 µM [inhibitor, partial curve]"
same,Potency,[2],"inconclusive: 66.8 µM [activator, partial curve, poor fit]"
same,Potency,[11],"inconclusive: 66.8 µM [activator, single point]"
CCCCC/C=C\C/C=C\CCCCCCCC(=O)O,Potency,[1],inactive
same,activation,[2],inconclusive: 23.7%
same,Potency,[3],active: 44.7 µM and active: 28.2 µM
COc1cccc2c1C(=O)c1c(O)c3c(c(O)c1C2=O)C[C@@](O)(C(C)=O)C[C@@H]3O[C@H]1C[C@H](N)[C@H](O)[C@H](C)O1,Potency,[7],active: 6.68 µM
same,Potency,[5],"inconclusive: 13.3 µM [rising, partial curve, poor fit]"
same,Potency,[2],"inconclusive: 66.8 µM [inhibitor, single point]"
same,Potency,[9],active: 13.3 µM
O=C(O)CCC(=O)C(=O)O,Potency,[1],"inconclusive: 66.8 µM [activator, single point]"
same,Potency,[5],inactive
same,Potency,[2],inactive
Oc1ccc(Cl)cc1Sc1cc(Cl)ccc1O,max response,[3],inactive: 18%
NC(=Nc1ccccc1)Nc1ccccc1,max response,[3],inactive: -2.99% and inactive: 6.68%
CC(C)=O,Potency,[4],inactive
Cc1ccc(S(=O)(=O)Nc2cc(Cl)ccc2C(=O)Nc2nc(-c3ccccc3)cs2)cc1,"activity change, negative = inhibition",[12],inactive: -6.79%
same,Potency,[13],active: 5.26 µM
Oc1cc2c(cc1O)C1c3ccc(O)c(O)c3OCC1(O)C2 (stereo not given),Potency,[14],"inconclusive: 33.8 µM [inhibitor, partial curve]"

# Laid out differently: results already given
compound	measurement	setting	value
CC(C)=O	Potency	[4]	inactive
Cc1ccc(S(=O)(=O)Nc2cc(Cl)ccc2C(=O)Nc2nc(-c3ccccc3)cs2)cc1	activity change, negative = inhibition	[12]	inactive: -6.79%
same	Potency	[13]	active: 5.26 µM
